Assay results taken from article PMC10579717.

Molecular target: BD-GhACO1 (GhACO1 full length fused to the Gal4 DNA-binding domain) (Gossypium hirsutum) (UniProt Q2QDG0)
Experiment: two-hybrid; Gal4 system; prey in pGADT7 (GhXB38D and its domains), bait in pGBKT7 (GhACS4, GhACO1); strain AH109; growth on SD-Trp/-Leu/-His/-Ade at 30 °C for 3-5 days

“AD-GhXB38D (GhXB38D full length fused to the Gal4 activation domain) (from UniProt A0A1U8HYW0) (enzyme)” was tested, and the binding was “binds”.

Results are given in words; binding and its absence hold for the method and conditions named. Binding can be weak; no strength is given.
